Experimental findings from article PMC6894885 are described below.

For the experiment, the target named is Flag-tagged replication and transcription activator (RTA), full length (Kaposi's sarcoma-associated herpesvirus (KSHV)) (UniProt F5HCV3). In words: affinity purification with mass spectrometry.

Results are given in words; binding and its absence hold for the method and conditions named. Binding seen in cells or lysates may run through a third protein. Here binding means that the protein was enriched with, or labelled near, the bait; the list need not be complete.

Turning to “Endogenous NCOA2 (from UniProt Q15596 1-1464)”, the binding result is recorded as “binds”.
